Results deposited as PubChem BioAssay AID1259405 (NCATS, 2018).
Test: 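Mouse-designed siRNAs used to find CHO productivity engineering targets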 (primary screen). Cell system: Chinese hamster CHO-K1 ovary cells with stable secreted eGFP expression. Reagent: single siRNA against mouse genes, 0.8 pmol siRNA per well (2 µl of 400 nM stock). Duration: 3 days. Measurement: 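Per-well intracellular GFP measured by laser scanning cytometry, plus viability from ATP luminescence, each relative to plate median of non-targeting control wells, in %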. Scale: GFP, % of control: higher = more GFP per well, higher productivity; viability (ATP), % of control: higher = more viable cells (more ATP). Rule for the call: 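a knock-down is called active if GFP reaches 120% or more of non-targeting control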.
In all, the deposit lists about 50,000 reagents; shown is an unselected part. In the full data, about 4,000 (8%) got an active call. 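Mouse siRNA library applied to hamster cells; one well for each siRNA.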 The numbers tell different reagents against one gene apart.

1700013G24Rik #1 | GFP, % of control = 84.1; viability (ATP), % of control = 64.1; outcome = inactive
1700013G24Rik #2 | GFP, % of control = 62.8; viability (ATP), % of control = 56.6; outcome = inactive
1700013G24Rik #3 | GFP, % of control = 57.3; viability (ATP), % of control = 43.9; outcome = inactive
Pafah1b2 #1 | GFP, % of control = 72.1; viability (ATP), % of control = 102; outcome = inactive
Pafah1b2 #2 | GFP, % of control = 50.5; viability (ATP), % of control = 54.3; outcome = inactive
Pafah1b2 #3 | GFP, % of control = 30.1; viability (ATP), % of control = 74.9; outcome = inactive
Capn5 #1 | GFP, % of control = 95.3; viability (ATP), % of control = 50.5; outcome = inactive
Capn5 #2 | GFP, % of control = 74; viability (ATP), % of control = 64.1; outcome = inactive
Cyp11a1 #1 | GFP, % of control = 76.4; viability (ATP), % of control = 55.6; outcome = inactive
Cyp11a1 #2 | GFP, % of control = 79.5; viability (ATP), % of control = 59.4; outcome = inactive
Cyp11a1 #3 | GFP, % of control = 220; viability (ATP), % of control = 72.7; outcome = active
Dnaaf6 #1 | GFP, % of control = 73.7; viability (ATP), % of control = 84.1; outcome = inactive
Dnaaf6 #2 | GFP, % of control = 87.7; viability (ATP), % of control = 107; outcome = inactive
Dnaaf6 #3 | GFP, % of control = 104; viability (ATP), % of control = 101; outcome = inactive
Uchl1 #1 | GFP, % of control = 82.5; viability (ATP), % of control = 69.6; outcome = inactive
Uchl1 #2 | GFP, % of control = 87.3; viability (ATP), % of control = 84.7; outcome = inactive
Uchl1 #3 | GFP, % of control = 66.6; viability (ATP), % of control = 81.6; outcome = inactive

Only “viability (ATP), % of control”, for 8 of the entries above:
Pafah1b2 #2 = 54.3
Pafah1b2 #3 = 74.9
Capn5 #1 = 50.5
Capn5 #2 = 64.1
Cyp11a1 #1 = 55.6
Cyp11a1 #2 = 59.4
Cyp11a1 #3 = 72.7
Dnaaf6 #1 = 84.1

The list goes on.
Anp32a #1 | GFP, % of control = 87.4; viability (ATP), % of control = 99.3; outcome = inactive
Anp32a #2 | GFP, % of control = 116; viability (ATP), % of control = 75.3; outcome = inactive
Anp32a #3 | GFP, % of control = 85.4; viability (ATP), % of control = 70; outcome = inactive
Pigs #1 | GFP, % of control = 127; viability (ATP), % of control = 66.3; outcome = active
Pigs #2 | GFP, % of control = 62.6; viability (ATP), % of control = 64.8; outcome = inactive
Pigs #3 | GFP, % of control = 103; viability (ATP), % of control = 105; outcome = inactive
Lysmd1 #1 | GFP, % of control = 86.7; viability (ATP), % of control = 90.4; outcome = inactive
Lysmd1 #2 | GFP, % of control = 35.3; viability (ATP), % of control = 43.8; outcome = inactive
Lysmd1 #3 | GFP, % of control = 102; viability (ATP), % of control = 82.7; outcome = inactive
Glrp1 #1 | GFP, % of control = 44.3; viability (ATP), % of control = 74.7; outcome = inactive
Glrp1 #2 | GFP, % of control = 58.4; viability (ATP), % of control = 78.8; outcome = inactive
Glrp1 #3 | GFP, % of control = 52.4; viability (ATP), % of control = 85.9; outcome = inactive
Akirin2 #1 | GFP, % of control = 89.2; viability (ATP), % of control = 78; outcome = inactive
Akirin2 #2 | GFP, % of control = 21.8; viability (ATP), % of control = 16.9; outcome = inactive
Akirin2 #3 | GFP, % of control = 75.4; viability (ATP), % of control = 27.8; outcome = inactive
Trappc2b #1 | GFP, % of control = 79.9; viability (ATP), % of control = 49.9; outcome = inactive
Trappc2b #2 | GFP, % of control = 70.9; viability (ATP), % of control = 77.1; outcome = inactive
Trappc2b #3 | GFP, % of control = 69.8; viability (ATP), % of control = 82.1; outcome = inactive
Gpr22 #1 | GFP, % of control = 181; viability (ATP), % of control = 47.5; outcome = active
Gpr22 #2 | GFP, % of control = 71.6; viability (ATP), % of control = 65.6; outcome = inactive
Gpr22 #3 | GFP, % of control = 80.2; viability (ATP), % of control = 62.1; outcome = inactive
Gpr22 #4 | GFP, % of control = 119; viability (ATP), % of control = 86.2; outcome = inactive
Gpr22 #5 | GFP, % of control = 85.7; viability (ATP), % of control = 79.7; outcome = inactive
Gpr22 #6 | GFP, % of control = 96.7; viability (ATP), % of control = 95.3; outcome = inactive
Ak4 #1 | GFP, % of control = 44.4; viability (ATP), % of control = 65.1; outcome = inactive
Ak4 #2 | GFP, % of control = 82.6; viability (ATP), % of control = 84.2; outcome = inactive
Ak4 #3 | GFP, % of control = 79.6; viability (ATP), % of control = 87.4; outcome = inactive
Shfl #1 | GFP, % of control = 85.5; viability (ATP), % of control = 79.9; outcome = inactive
Shfl #2 | GFP, % of control = 96.8; viability (ATP), % of control = 63.6; outcome = inactive
Shfl #3 | GFP, % of control = 55.2; viability (ATP), % of control = 82.6; outcome = inactive
Or14a256 #1 | GFP, % of control = 52.3; viability (ATP), % of control = 49.1; outcome = inactive
Or14a256 #2 | GFP, % of control = 85.5; viability (ATP), % of control = 61.6; outcome = inactive
Or14a256 #3 | GFP, % of control = 56.6; viability (ATP), % of control = 86.4; outcome = inactive
Psmf1 #1 | GFP, % of control = 37.1; viability (ATP), % of control = 66.8; outcome = inactive
Psmf1 #2 | GFP, % of control = 83.3; viability (ATP), % of control = 72.5; outcome = inactive
Psmf1 #3 | GFP, % of control = 91.6; viability (ATP), % of control = 82.9; outcome = inactive
